No constants are given. Whether binding was seen depends on the method and setting. Some results given as binding are weak or reduced against the parent protein; the word gives no strength.

Sequences of proteins named here, by UniProt entry; tags and fusion partners are left off. A change or cut given only in a name is not applied to a line headed by its entry. Residues count along the entry.
UniProt Q5ZPR3: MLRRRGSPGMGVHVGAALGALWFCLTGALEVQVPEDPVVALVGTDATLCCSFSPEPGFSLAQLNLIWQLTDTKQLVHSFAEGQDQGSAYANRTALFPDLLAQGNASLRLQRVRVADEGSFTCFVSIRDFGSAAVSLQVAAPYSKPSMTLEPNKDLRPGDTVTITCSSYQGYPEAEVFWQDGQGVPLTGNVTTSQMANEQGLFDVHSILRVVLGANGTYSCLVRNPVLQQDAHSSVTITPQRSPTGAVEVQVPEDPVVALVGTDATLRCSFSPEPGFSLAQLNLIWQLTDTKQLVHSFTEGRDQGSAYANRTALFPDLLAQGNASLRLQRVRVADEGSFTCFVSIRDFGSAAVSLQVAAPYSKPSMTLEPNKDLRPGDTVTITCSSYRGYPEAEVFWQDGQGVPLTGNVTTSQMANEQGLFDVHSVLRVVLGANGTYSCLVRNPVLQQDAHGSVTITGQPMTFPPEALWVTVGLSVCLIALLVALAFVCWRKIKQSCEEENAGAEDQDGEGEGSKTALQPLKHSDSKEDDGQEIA
CD276 protein on tumor target cells (NCI-H292, SK-OV-3): residues 29-534 of Q5ZPR3
human recombinant CD276 protein (Beijing Sino Biological, catalog number 11188-H08H-B): residues 29-461 of Q5ZPR3

In experiment [1] the target is human recombinant CD276 protein (Beijing Sino Biological, catalog number 11188-H08H-B) (human) (UniProt Q5ZPR3). Briefly: ELISA of clone supernatants on antigen CD276 (Fig. 1). In general terms: ELISA stands for enzyme-linked immunosorbent assay.
Experiment [2] has the same target. Briefly: ELISA, plate coated with 2 ug/mL CD276, Fab in clone supernatant, HRP goat anti-human Fab.
Experiment [3] shares this target. Briefly: ELISA of phage-library clones on CD276 protein.
Experiment [4] has as its target CD276 protein on tumor target cells (NCI-H292, SK-OV-3) (human) (UniProt Q5ZPR3). Briefly: flow cytometry on NCI-H292 cells, IgG-Fc-PE second antibody.
Experiment [5] has the same target. Briefly: flow cytometry on NCI-H292 cell line (Fig. 3).

B1: Hu012-21 Fab (clone supernatant) (Fab, V domains shown)
VH: EVQLVQSGGGVVQPGRSLRLSCAASGFTFSSYGMHWVRQAPGKGLEWVAVISYDGSNKYYADSVKGRFTISRDNSKDTLYLQMNSLRAEDTAVYYCAKDKLMGWHNYGMDVWGQGTTVTVSS
VL: AIQLTQSPSSLSASVGDRVTITCRASQSINSYLNWYQQKPGKAPKVLIYAASNLQSGVPSRFSGSGSGTDFTLTISSLQPEDFATYYCQQSYSTPPTFGQGTKLEIK
As to B1, the binding entry in experiment [1], in experiment [2] and in experiment [3] was “binds” each time.

B2: Hu012-24 Fab (clone supernatant) (Fab, V domains shown)
VH: EVQLVQSGGGLVKPGGSLRLSCAASGFTFSRHSMNWVRQAPGKGLEWVSSISSNDEHIIYADSVKGRFTISRDNSKNTLYLEMNSLRAEDTAVYYCARASRYGGSYYGLDYWGQGTLVTVSS
VL: QTVVTQEPSFSVSPGGTVTLTCGLTSGSVSTTYFPSWYQQTPGQPPRRLIYNTNTRSSGVPDRFSGSIVGIKAALTITGAQAEDESDYYCALYLGSGIVEFGGGTKLTVL
Turning to B2, the binding result in experiment [1], in experiment [2] and in experiment [3] was “binds” each time.

B3: Hu012-6 Fab (clone supernatant) (Fab, V domains shown)
VH: QMQLVQSGGGLVQPGGSLRLSCAASGFTFSSYWMSWVRQAPGKGLEWVANIKQDGSEKYYVDSVKGRFTISRDNAKNSLYLQMNSLRAEDTAVYYCARSPHYDFWRRDYYYGMDVWGQGTLVTVSS
VL: QSVLTQPPSVSATPGQTVTISCSGSTSNIATNYVSWYQHLPGSAPKLLIYDNNKRPSGIPDRFSGSKSGTSATLDIIGLQTGDEADYYCGVWDPSLTTYVFGTGTQLTAL
For the molecule B3, the binding result in experiment [1], in experiment [2] and in experiment [3] was “binds” in each case.

B4: Hu012-8 (antibody, IgG1, V domains shown)
VH: QVQLVQSGAEVKKPGASVRVSCKGSGYTFTDHHMYWVRQAPGQGLEWMGRINPNTGVTNYAQKFQGRVSMTRDTSINTVYLELRSLKSDDAAVYYCGRDQVVMVPGVPLDLGMDVWGQGTTVTVSS
VL: NIQMTQSPSSLSASVGDRVTITCRASQTISRYLNWYQQKPGKAPKLLIYAASSLQSGVPSRFSGSGSGADFTLTINTLQPEDFATYYCQQSYRTPQTFGQGTKVEIK
notes: Full-length IgG1; also called candidate antibody Hu012-8
Consider B4, for which the binding result in experiment [4] and in experiment [5] was “binds” each time.

B5: Hu012-8 Fab (clone supernatant) (Fab, V domains shown)
VH: B4 VH
VL: B4 VL
With B5, the binding entry in experiment [1], in experiment [2] and in experiment [3] was “binds” throughout.

B6: Hu012-13 Fab (clone supernatant) (Fab, V domains shown)
VH: EVQLVQSGAEVKKPGASVKVSCKASGYTFTSYGISWVRQAPGQGLEWMGWISAYNGNTNYAQKLQGRVTMTTDTSTSTAYMELRSLRSDDTAVYYCARAPYYGGYDYWGQGTMVTVSS
VL: ETTLTQSPGTLSLSPGDRATLSCRASQSVRSSYLAWYQQKPGQAPRLVIYGASNRAAGIPDRFSGSGSGTDFTLTISGLEPEDFAVYYCQEYGYSLPNTFGQGTKLEIK
Turning to B6, the binding entry in experiment [1], in experiment [2] and in experiment [3] was “binds” throughout.

B7: Hu012-3 Fab (clone supernatant) (Fab, V domains shown)
VH: QVQLVQSGAEVKKPGESLRISCKGSGYSFTSYWISWVRQMPGKGLEWMGRIDPSDSYTNYSPSFQGHVTISADKSISTAYLQWSSLKASDTAMYYCARHDASGGGPSDYWGQGTLVTVSS
VL: QSVLTQPPSVSAAPGQRVTISCSGSSSNIGDHYVSWYQQLPGTAPKLLIYDNNKRPSGIPDRFSGSKSGTSATLGITGLQTGDEADYYCGTWDSSLSVPNWVFGGGTKVTVL
Regarding B7, the binding result in experiment [1], in experiment [2] and in experiment [3] was “binds” each time.

B8: Hu012-14 Fab (clone supernatant) (Fab, V domains shown)
VH: EVQLVETGGGLVQPGGSLRLSCAASGFTFSSYGMTWVRQPPGKGLEWVSHISGSGTNTYYADSVKGRFTISRDNSKNTLYLQMNNLGAEDTAVYYCAKLKWGHSGYGDYWGQGTTVTVSS
VL: EIVLTQSPATLSLSPGERATLSCRASQTISRYLAWYQQKPGQAPRLLIYDASNRATGIPARFSGSGSDTDFTLTISSIEPEDFAVYYCQERSNWPQVTFGPGTKLEIK
In the case of B8, the binding result in experiment [1], in experiment [2] and in experiment [3] was “binds” each time.

Source of the values: patent EP4703386A1 (Shanghai Sinobay Biotechnology Co., Ltd., dated 2026).
